Source: PubChem BioAssay AID1224828 (NIAID, 2016)
Assay: 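Knock-downs that increase or decrease LPS-induced p65 nuclear translocation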 (primary screen). Cells: mouse RAW264.7 G9 macrophage reporter cells (GFP-p65, Tnf promoter-mCherry). Reagents: siRNA pool against mouse genes, 100 nM. Duration: 2 days siRNA transfection, then 40 min LPS before fixation. Treatment: LPS (Salmonella minnesota R595) at 10 ng/ml. Measured: 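Microscopy ratio of nuclear to perinuclear-ring GFP-p65 signal, scaled to the plate median; gene score is the average of two replicate robust z-scores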. Reading the numbers: p65 translocation robust z-score: higher = more nuclear NF-kappaB p65 after LPS than the plate median; nuclear/cytoplasmic p65 ratio: higher = more nuclear NF-kappaB p65. Hit rule: 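Called active when z exceeds 3.3 or falls under -1.56 (median of Tlr4 controls), giving activity score of at least 50; no calls for control wells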. Meaning of the calls: active = hit (p65 shift raised or lowered); inactive = no clear change.
Shown is one part, drawn at random, of about 17,000 deposited reagents. In the full data, 762 (4.5%) were called active. 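Active calls include both raised and lowered p65 entry, mostly lowered; wells with fewer than 50 cells lack a z-score.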 The raw values are shown without normalisation.

The opening 5 records as a preview:
| Target gene | p65 translocation robust z-score | nuclear/cytoplasmic p65 ratio, rep 1 | nuclear/cytoplasmic p65 ratio, rep 2 | low cell count flag | Call |
| --- | --- | --- | --- | --- | --- |
| Rpl31 (GeneID 114641) | -0.7 | 1.42 | 1.14 | enough cells to score | inactive |
| Tas2r134 (GeneID 387511) | -0.03 | 1.36 | 1.11 | enough cells to score | inactive |
| Psd (GeneID 73728) | -0.1 | 1.44 | 1.51 | enough cells to score | inactive |
| Nsmce1 (GeneID 67711) | 0.46 | 1.46 | 1.53 | enough cells to score | inactive |
| Vps37a (GeneID 52348) | 1.42 | 1.77 | 1.76 | enough cells to score | inactive |

The list itself, repeating the preview:
| Target gene | p65 translocation robust z-score | nuclear/cytoplasmic p65 ratio, rep 1 | nuclear/cytoplasmic p65 ratio, rep 2 | low cell count flag | Call |
| --- | --- | --- | --- | --- | --- |
| Rpl31 (GeneID 114641) | -0.7 | 1.42 | 1.14 | enough cells to score | inactive |
| Tas2r134 (GeneID 387511) | -0.03 | 1.36 | 1.11 | enough cells to score | inactive |
| Psd (GeneID 73728) | -0.1 | 1.44 | 1.51 | enough cells to score | inactive |
| Nsmce1 (GeneID 67711) | 0.46 | 1.46 | 1.53 | enough cells to score | inactive |
| Vps37a (GeneID 52348) | 1.42 | 1.77 | 1.76 | enough cells to score | inactive |
| Sys1 (GeneID 66460) | 0 | 1.45 | 1.41 | enough cells to score | inactive |
| Ccnd3 (GeneID 12445) | 0.04 | 1.4 | 1.38 | enough cells to score | inactive |
| A630023P12Rik (GeneID 231603) | 0.65 | 1.37 | 1.72 | enough cells to score | inactive |
| Ccr6 (GeneID 12458) | -1.43 | 1.29 | 1.39 | enough cells to score | inactive |
| Gm5084 (GeneID 100503759) | -1.06 | 1.3 | 1.31 | enough cells to score | inactive |
| Plcz1 (GeneID 114875) | – | 1.47 | 1.09 | fewer than 50 cells per well; well left out of scoring | inactive |
| Dennd2b (GeneID 76954) | 0.26 | 1.52 | 1.66 | enough cells to score | inactive |
| Crybg3 (GeneID 224273) | 1.81 | 1.67 | 1.78 | enough cells to score | inactive |
| Vrk2 (GeneID 69922) | 0.15 | 1.5 | 1.4 | enough cells to score | inactive |
| Ccnb1 (GeneID 268697) | 0.25 | 1.48 | 1.43 | enough cells to score | inactive |
| Zfp78 (GeneID 330463) | – | 1.24 | 1.37 | fewer than 50 cells per well; well left out of scoring | inactive |
| Il23r (GeneID 209590) | 0.64 | 1.65 | 1.38 | enough cells to score | inactive |
| Hs3st1 (GeneID 15476) | -2.52 | 1.28 | 1.2 | enough cells to score | active |
| Krt7 (GeneID 110310) | -0.46 | 1.36 | 1.37 | enough cells to score | inactive |
| Trib2 (GeneID 217410) | 0.74 | 1.74 | 1.53 | enough cells to score | inactive |
| 9330119M13Rik (GeneID 319963) | 0.43 | 1.48 | 1.55 | enough cells to score | inactive |
| Rccd1 (GeneID 269955) | 0.78 | 1.59 | 1.19 | enough cells to score | inactive |
| BC051019 (GeneID 57355) | 0 | 1.62 | 1.37 | enough cells to score | inactive |
| Timp4 (GeneID 110595) | 0.4 | 1.56 | 1.59 | enough cells to score | inactive |
| Rps25 (GeneID 75617) | -0.12 | 1.4 | 1.21 | enough cells to score | inactive |
| Wdr24 (GeneID 268933) | -0.34 | 1.43 | 1.9 | enough cells to score | inactive |
| Tmem14a (GeneID 75712) | 1.37 | 1.44 | 1.75 | enough cells to score | inactive |
| Triap1 (GeneID 69076) | – | 1.22 | 1.41 | fewer than 50 cells per well; well left out of scoring | inactive |
| Cap1 (GeneID 12331) | 0.32 | 1.7 | 1.63 | enough cells to score | inactive |
| Desi1 (GeneID 28075) | -1.51 | 1.34 | 1.55 | enough cells to score | inactive |
| Defb9 (GeneID 246079) | -0.67 | 1.5 | 1.43 | enough cells to score | inactive |
| Cenpx (GeneID 20892) | 1.55 | 1.58 | 1.44 | enough cells to score | inactive |
| Spata18 (GeneID 73472) | 1.33 | 1.49 | 1.66 | enough cells to score | inactive |
| Crppa (GeneID 75847) | – | 1.47 | 1.4 | fewer than 50 cells per well; well left out of scoring | inactive |
| Timm10 (GeneID 30059) | – | 1.46 | 1.11 | fewer than 50 cells per well; well left out of scoring | inactive |
| Spag7 (GeneID 216873) | – | 1.28 | 1.08 | fewer than 50 cells per well; well left out of scoring | inactive |
| Slc19a1 (GeneID 20509) | 0.05 | 1.74 | 1.26 | enough cells to score | inactive |
| Lcp2 (GeneID 16822) | 0.11 | 1.91 | 1.39 | enough cells to score | inactive |
| Map2 (GeneID 17756) | 0.59 | 1.52 | 1.42 | enough cells to score | inactive |
| Grm5 (GeneID 108071) | 0.77 | 1.5 | 1.81 | enough cells to score | inactive |
